From PubChem BioAssay AID192 (DTP/NCI, 2004) come the findings set out here.

This assay deals with BDF1 mice, B16 melanoma ip, median survival T/C. Nature of the assay: NCI In Vivo Anticancer Drug Screen. Data for tumor model B16 Melanoma (intraperitoneal) in B6D2F1 (BDF1) mice. The conditions noted are these: T/C endpoint: median survival time, higher T/C = longer survival. The gist of the method:
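The ratio T/C compares compound-treated mice with vehicle-treated controls, using survival or tumor size as the endpoint in a transplantable tumor model.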

Setting [1] is: dose: 400.0 mg/kg/injection, schedule: Q01DX009 (ip), vehicle: saline with Tween-80.

The list is a part of this screen's results and no random one: it gathers tests that were run many times, whatever their T/C, doses with no T/C, and many T/C values between a quarter and a half above the control. Other doses and runs of a compound stand elsewhere. T/C is the treated group as % of the vehicle group. Some doses have a count of surviving animals in place of a T/C: the source holds a T/C of zero for them, seemingly a mark for toxic or unscored doses. Some survivor counts are full or nearly so, which does not show that the dose was tolerated: survival well below the control is almost never listed, so the zero probably covers shortened survival too. Survivors were counted at the toxicity check, usually on the fifth day, unless a day is given; later deaths do not show. Schedules are NCI's codes, read here as Q, the interval in days (D) or hours (H), X, the number of doses. Some doses were run more than once; the results are listed from low to high. Signs of the kind (2×) give the number of equal values in this list. Where survival is the endpoint, this PubChem deposit counts one and a half times the control or more as active, and values a quarter to a half above the control carry no call in these data; other NCI protocols may use other cut-offs. Some T/C values are followed by the survivors on the day toxicity was checked, most often the fifth; without a count, all were alive then.

For `N[C@@H](Cc1ccc(N(CCCl)CCCl)cc1)C(=O)O`, the T/C reads like this: (dose: 0.25 mg/kg/injection, schedule: Q01DX009 (ip), vehicle: Klucel (hydroxypropylcellulose) (HPC)) 129 and 130 % of control; (dose: 0.25 mg/kg/injection, schedule: Q01DX009 (ip), vehicle: saline) 133 % of control; (dose: 0.5 mg/kg/injection, schedule: Q01DX009 (ip), vehicle: Klucel (hydroxypropylcellulose) (HPC)) 127, 143, 162, 181 % of control; (dose: 0.5 mg/kg/injection, schedule: Q01DX009 (ip), vehicle: saline with Tween-80) 146 % of control; (dose: 0.5 mg/kg/injection, schedule: Q01DX009 (ip), vehicle: saline, evaluated on day 45) 145 % of control; (dose: 0.5 mg/kg/injection, schedule: Q01DX009 (ip), vehicle: saline, evaluated on day 60) 114, 132, 133 [9 of 10 alive], 140, 141, 150, 166, 179, 181, 237 % of control. Also, the T/C reads like this: (dose: 0.7 mg/kg/injection, schedule: Q01DX009 (ip), vehicle: saline) 145 % of control; (dose: 1.0 mg/kg/injection, schedule: Q01DX009 (ip), vehicle: Klucel (hydroxypropylcellulose) (HPC)) 141, 167, 187, 210 % of control; (dose: 1.0 mg/kg/injection, schedule: Q01DX009 (ip), vehicle: saline, evaluated on day 45) 175 % of control; (dose: 1.0 mg/kg/injection, schedule: Q01DX009 (ip), vehicle: saline, evaluated on day 60) 130 [5 of 6 alive], 162, 163 [9 of 10 alive], 166, 167, 173, 179, 203, 205, 221, 274 % of control; (dose: 1.5 mg/kg/injection, schedule: Q04DX003 (ip), vehicle: Klucel (hydroxypropylcellulose) (HPC)) 148 % of control; (dose: 2.0 mg/kg/injection, schedule: Q01DX009 (ip), vehicle: Klucel (hydroxypropylcellulose) (HPC)) 170 [7 of 8 alive], 198, 272, 279 % of control. In addition, the T/C reads like this: (dose: 2.0 mg/kg/injection, schedule: Q01DX009 (ip), vehicle: saline, evaluated on day 10) 189 % of control; (dose: 2.0 mg/kg/injection, schedule: Q01DX009 (ip), vehicle: saline, evaluated on day 45) 203 % of control; (dose: 2.0 mg/kg/injection, schedule: Q01DX009 (ip), vehicle: saline, evaluated on day 60) 175, 177, 192, 193, 206, 220, 241, 243, 257 % of control; (dose: 2.0 mg/kg/injection, schedule: Q04DX003 (ip), vehicle: saline) 149 % of control; (dose: 2.2 mg/kg/injection, schedule: Q01DX005 (ip), vehicle: saline) 129 % of control; (dose: 2.5 mg/kg/injection, schedule: Q01DX001 (ip), vehicle: water) 127 % of control. The T/C is 148 % of control (dose: 3.0 mg/kg/injection, schedule: Q04DX003 (ip), vehicle: Klucel (hydroxypropylcellulose) (HPC)); 134 % of control (dose: 3.6 mg/kg/injection, schedule: Q01DX005 (ip), vehicle: saline); 108, 137, 220, 236 % of control (dose: 4.0 mg/kg/injection, schedule: Q01DX009 (ip), vehicle: Klucel (hydroxypropylcellulose) (HPC)); 122 % of control (dose: 4.0 mg/kg/injection, schedule: Q01DX009 (ip), vehicle: saline, evaluated on day 45); 114, 115, 149 [9 of 10 alive], 182, 205 [9 of 10 alive], 250, 254, 278 % of control (dose: 4.0 mg/kg/injection, schedule: Q01DX009 (ip), vehicle: saline, evaluated on day 60); 148 % of control (dose: 5.0 mg/kg/injection, schedule: Q01DX001 (ip), vehicle: water). The T/C (dose: 6.0 mg/kg/injection, schedule: Q01DX009 (ip), vehicle: Klucel (hydroxypropylcellulose) (HPC)) is 125 % of control. Besides, the survivor count (dose: 2.0 mg/kg/injection, schedule: Q01DX009 (ip), vehicle: saline) is 10 of 10 and 6 of 6; the survivor count (dose: 4.0 mg/kg/injection, schedule: Q01DX009 (ip), vehicle: saline) was 10 of 10 and 6 of 6; the survivor count (dose: 6.0 mg/kg/injection, schedule: Q01DX009 (ip), vehicle: saline) was 6 of 6; the survivor count (dose: 8.0 mg/kg/injection, schedule: Q01DX009 (ip), vehicle: Klucel (hydroxypropylcellulose) (HPC)) was 10 of 10 and 8 of 8; the survivor count (dose: 8.0 mg/kg/injection, schedule: Q01DX009 (ip), vehicle: saline with Tween-80) was 10 of 10; the survivor count (dose: 8.0 mg/kg/injection, schedule: Q01DX009 (ip), vehicle: saline) was 1 of 10, 3 of 6, 9 of 10, 10 of 10 (2×). Further, the survivor count is, setting by setting: (dose: 9.0 mg/kg/injection, schedule: Q01DX009 (ip), vehicle: carboxymethylcellulose (CMC)) 10 of 10; (dose: 12.0 mg/kg/injection, schedule: Q01DX009 (ip), vehicle: carboxymethylcellulose (CMC)) 10 of 10 and 6 of 6; (dose: 12.0 mg/kg/injection, schedule: Q01DX009 (ip), vehicle: saline) 10 of 10; (dose: 16.0 mg/kg/injection, schedule: Q01DX009 (ip), vehicle: saline) 9 of 10 and 10 of 10; (dose: 20.0 mg/kg/injection, schedule: Q01DX001 (ip), vehicle: Klucel (hydroxypropylcellulose) (HPC)) 10 of 10; (dose: 20.0 mg/kg/injection, schedule: Q01DX001 (ip), vehicle: water) 10 of 10. For the same compound, the survivor count runs as follows: (dose: 24.0 mg/kg/injection, schedule: Q01DX009 (ip), vehicle: carboxymethylcellulose (CMC)) 5 of 6; (dose: 30.0 mg/kg/injection, schedule: Q01DX001 (ip), vehicle: water) 0 of 10.
In the case of `O=P(NC12CC3CC(CC(C3)C1)C2)(N1CC1)N1CC1`, the survivor count runs as follows: (dose: 10.0 mg/kg/injection, schedule: Q01DX009 (ip), vehicle: Klucel (hydroxypropylcellulose) (HPC)) 10 of 10; (dose: 15.0 mg/kg/injection, schedule: Q01DX009 (ip), vehicle: Klucel (hydroxypropylcellulose) (HPC)) 9 of 10.
On to `CC1([CH2][Hg][I])CS(=O)(=O)CC(C)([CH2][Hg][I])O1` (centres undefined), for which the survivor count reads like this: (dose: 0.3 mg/kg/injection, schedule: Q01DX009 (ip), vehicle: saline sonified) 5 of 6; (dose: 0.6 mg/kg/injection, schedule: Q01DX009 (ip), vehicle: saline sonified) 6 of 6.
Take `C[C@@H]1CC2=CC(=O)C=C[C@]2(C)[C@H]2CC[C@@]3(C)[C@@H](CC[C@]3(C)O)[C@H]12`: the survivor count runs as follows: (dose: 50.0 mg/kg/injection, schedule: Q01DX009 (ip), vehicle: Klucel (hydroxypropylcellulose) (HPC)) 10 of 10; (dose: 200.0 mg/kg/injection, schedule: Q01DX009 (ip), vehicle: Klucel (hydroxypropylcellulose) (HPC)) 10 of 10; (dose: 400.0 mg/kg/injection, schedule: Q01DX009 (ip), vehicle: Klucel (hydroxypropylcellulose) (HPC)) 10 of 10.
Consider `CCOc1ccc(NC(=O)Nc2ccccc2)cc1`, for which the survivor count is given as 10 of 10 (dose: 200.0 mg/kg/injection, schedule: Q01DX009 (ip), vehicle: saline with Tween-80) and 10 of 10 under setting [1].
On to `CC1(C)N=C(N)N=C(N)N1c1ccc(CCC(=O)Nc2ccc(S(=O)(=O)F)cc2)c(Cl)c1`, for which the T/C reads like this: (dose: 25.0 mg/kg/injection, schedule: Q01DX009 (ip), vehicle: saline) 126 % of control; (dose: 35.6 mg/kg/injection, schedule: Q01DX009 (ip), vehicle: saline with Tween-80) 125 % of control; (dose: 50.0 mg/kg/injection, schedule: Q01DX009 (ip), vehicle: saline) 133 % of control. Further, the survivor count by setting is: (dose: 44.0 mg/kg/injection, schedule: Q01DX009 (ip), vehicle: saline with Tween-80) 6 of 6; (dose: 67.0 mg/kg/injection, schedule: Q01DX009 (ip), vehicle: saline with Tween-80) 6 of 6; (dose: 100.0 mg/kg/injection, schedule: Q01DX009 (ip), vehicle: saline with Tween-80) 6 of 6; (dose: 150.0 mg/kg/injection, schedule: Q01DX009 (ip), vehicle: saline with Tween-80) 6 of 6.
With `CC(C)NNC(=O)c1ccccc1N`, under “dose: 25.0 mg/kg/injection, schedule: Q01DX009 (ip), vehicle: Klucel (hydroxypropylcellulose) (HPC)”, the survivor count is recorded as 10 of 10.
`CCCCCCOC(CN(C)C)C(Cl)(Cl)Cl` (centres undefined): the survivor count was 9 of 10 (dose: 200.0 mg/kg/injection, schedule: Q01DX009 (ip), vehicle: distilled water + Tween-80); 7 of 10 (dose: 400.0 mg/kg/injection, schedule: Q01DX009 (ip), vehicle: distilled water + Tween-80); 8 of 10 under setting [1].
